We go through 1 sequence from PMC11878095, “Interspecies signaling modulates the biosynthesis of antimicrobial secondary metabolites related to biological control activities of Pseudomonas fluorescens 2P24” (Microbiology Spectrum, 2025).

Construct, isoform or probe ends are uncertain for at least one entry. At least one verdict was read from the data and is not stated in words by the source. Where a protein sequence is shown, tags need not be part of it.

The target of the data set is T1, PhlF (2P24_PhlF) (Pseudomonas fluorescens 2P24) (UniProt Q9S6I5).
T1 sequence (looked up, limits assumed): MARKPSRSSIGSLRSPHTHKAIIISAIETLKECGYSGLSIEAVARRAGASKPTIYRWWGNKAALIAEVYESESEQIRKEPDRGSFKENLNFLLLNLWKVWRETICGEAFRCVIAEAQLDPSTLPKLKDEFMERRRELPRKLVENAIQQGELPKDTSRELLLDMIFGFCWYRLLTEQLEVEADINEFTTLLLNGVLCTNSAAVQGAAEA
As to the kind of experiment: EMSA. Conditions: EMSA: 0.2 uM DNA, Tris-HCl pH 8.0 (printed as 0 mM), 0.5 mM KCl, 6 mM MgCl2, 0.1% glycerol, 2 mM EDTA, 1 mM DTT, 3 uM human serum albumin, 30 min at 25 C, 6% native PAGE, recombinant protein, protein details: N-terminal His6, label: 6-carboxyfluorescein. (In general: Mobility shift assays separate free from complexed probe on a gel.)

For the sequence “ATGATACGAAACGTGCCGTATCGTTAAGGT (double strand) [phlA operator fragment (phlF-phlA intergenic)]”, the binding result (no PLT) is on record as “binds” and the binding result (pyoluteorin (PLT) up to 1 mM, does not dissociate PhlF from DNA) is on record as “binds”.
